Results deposited as PubChem BioAssay AID1259405 (NCATS, 2018)

- Assay: 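Mouse-designed siRNAs used to find CHO productivity engineering targets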 (primary screen)
- Cells: Chinese hamster CHO-K1 ovary cells with stable secreted eGFP expression
- Reagent: single siRNA against mouse genes, 0.8 pmol siRNA per well (2 µl of 400 nM stock)
- Duration: 3 days
- Measurement: 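Percent of the per-plate non-targeting control median for intracellular GFP per well by laser scanning cytometry and for cell viability by ATP luminescence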
- Reading the numbers: GFP, % of control: higher = more GFP per well, higher productivity; viability (ATP), % of control: higher = more viable cells (more ATP)
- Hit rule: 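Called active when intracellular GFP, relative to negative control, is at or above 120%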
This is an unselected part of about 50,000 reagents. Of all reagents, about 4,000 (8%) got an active call. 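Mouse siRNA library applied to hamster cells; one well for each siRNA.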 No sequences are given here.

| gene | PubChem SID | GFP, % of control | viability (ATP), % of control | call |
| --- | --- | --- | --- | --- |
| Cyp2f2 | SID363573057 | 54.5 | 72.8 | inactive |
| Cyp2f2 | SID363577633 | 154 | 110 | active |
| Cyp2f2 | SID363581153 | 120 | 81.3 | inactive |
| Efna5 | SID363541510 | 47.8 | 67.5 | inactive |
| Efna5 | SID363556137 | 52.8 | 71.8 | inactive |
| Efna5 | SID363566426 | 58.8 | 57.1 | inactive |
| Sack1a | SID363547099 | 29.9 | 37.8 | inactive |
| Sack1a | SID363549911 | 91.4 | 86.7 | inactive |
| Sack1a | SID363587965 | 96.8 | 69.5 | inactive |
| Ier3 | SID363540206 | 48.5 | 58.5 | inactive |
| Ier3 | SID363541958 | 97.1 | 81.7 | inactive |
| Ier3 | SID363566874 | 151 | 94.4 | active |
| Rplp1 | SID363554041 | 108 | 70.1 | inactive |
| Rplp1 | SID363561998 | 64.8 | 50.5 | inactive |
| Rplp1 | SID363565736 | 47.7 | 41.7 | inactive |
| Sephs2 | SID363570411 | 96.1 | 95.6 | inactive |
| Sephs2 | SID363579211 | 108 | 147 | inactive |
| Sephs2 | SID363583083 | 73.2 | 84.3 | inactive |
| Slc35f4 | SID363555061 | 159 | 73.5 | active |
| Slc35f4 | SID363568508 | 87.5 | 77.6 | inactive |
| Slc35f4 | SID363586567 | 63.7 | 53.2 | inactive |
| Gm10413 | SID363540785 | 80.5 | 67.6 | inactive |
| Gm10413 | SID363543236 | 74.2 | 60.4 | inactive |
| Gm10413 | SID363552729 | 96.1 | 70.2 | inactive |
| Rnaseh1 | SID363569191 | 40.3 | 36.9 | inactive |
| Rnaseh1 | SID363583623 | 98 | 100 | inactive |

Reprinted from above for reference:
| gene | PubChem SID | GFP, % of control | viability (ATP), % of control | call |
| --- | --- | --- | --- | --- |
| Rplp1 | SID363554041 | 108 | 70.1 | inactive |
| Rplp1 | SID363561998 | 64.8 | 50.5 | inactive |
| Rplp1 | SID363565736 | 47.7 | 41.7 | inactive |
| Sephs2 | SID363570411 | 96.1 | 95.6 | inactive |
| Sephs2 | SID363579211 | 108 | 147 | inactive |
| Sephs2 | SID363583083 | 73.2 | 84.3 | inactive |
| Slc35f4 | SID363555061 | 159 | 73.5 | active |
| Slc35f4 | SID363568508 | 87.5 | 77.6 | inactive |
| Slc35f4 | SID363586567 | 63.7 | 53.2 | inactive |

The list goes on:
| gene | PubChem SID | GFP, % of control | viability (ATP), % of control | call |
| --- | --- | --- | --- | --- |
| Slc25a11 | SID363569961 | 139 | 95.7 | active |
| Slc25a11 | SID363577001 | 105 | 115 | inactive |
| Slc25a11 | SID363578409 | 142 | 73.1 | active |
| Cpa5 | SID363574570 | 77.9 | 92.4 | inactive |
| Cpa5 | SID363575626 | 41.9 | 43.1 | inactive |
| Cpa5 | SID363580202 | 51.6 | 66.2 | inactive |
| Zfp654 | SID363545495 | 90.7 | 69.4 | inactive |
| Zfp654 | SID363549008 | 86.9 | 73.9 | inactive |
| Zfp654 | SID363562814 | 104 | 86.2 | inactive |
| Dnmt3a | SID363569562 | 87.7 | 71.9 | inactive |
| Dnmt3a | SID363577306 | 118 | 71 | inactive |
| Dnmt3a | SID363578714 | 78.8 | 76 | inactive |
| Ecscr | SID363540538 | 55.3 | 51.7 | inactive |
| Ecscr | SID363542989 | 78 | 64.3 | inactive |
| Ecscr | SID363552482 | 77.2 | 68.3 | inactive |
| Ufm1 | SID363543380 | 69.1 | 54.1 | inactive |
| Ufm1 | SID363552873 | 58.1 | 74.4 | inactive |
| Ufm1 | SID363558721 | 62.6 | 68.9 | inactive |
| Atp6v1a | SID363574367 | 74.6 | 74.5 | inactive |
| Atp6v1a | SID363575423 | 79.3 | 69.4 | inactive |
| Atp6v1a | SID363579999 | 73.1 | 63.7 | inactive |
| Ehmt2 | SID363569334 | 60.8 | 85 | inactive |
| Ehmt2 | SID363577078 | 64.7 | 85.7 | inactive |
| Ehmt2 | SID363578486 | 55.6 | 77.9 | inactive |
| Cdcp3 | SID363544072 | 60.7 | 75.3 | inactive |
| Cdcp3 | SID363550400 | 77.3 | 76.7 | inactive |
| Cdcp3 | SID363556949 | 84.4 | 84.7 | inactive |
| Atraid | SID363540744 | 85.6 | 86.1 | inactive |
| Atraid | SID363543195 | 117 | 106 | inactive |
| Atraid | SID363552688 | 81.9 | 81.9 | inactive |
| Topors | SID363573024 | 68.5 | 54.6 | inactive |
| Topors | SID363577600 | 68.6 | 61.8 | inactive |
| Topors | SID363581120 | 73.2 | 72 | inactive |
